This passage reports IC50 results from PMC9276262 (ChemMedChem, 2021).

The target of one assay is aromatase. The note with it: read-out: IC50 (nM) Literature; literature range; cited from earlier work.
The target in assay [1] is T1, purified recombinant aromatase (Homo sapiens, UniProt P11511).
T1 sequence (P11511 1-503): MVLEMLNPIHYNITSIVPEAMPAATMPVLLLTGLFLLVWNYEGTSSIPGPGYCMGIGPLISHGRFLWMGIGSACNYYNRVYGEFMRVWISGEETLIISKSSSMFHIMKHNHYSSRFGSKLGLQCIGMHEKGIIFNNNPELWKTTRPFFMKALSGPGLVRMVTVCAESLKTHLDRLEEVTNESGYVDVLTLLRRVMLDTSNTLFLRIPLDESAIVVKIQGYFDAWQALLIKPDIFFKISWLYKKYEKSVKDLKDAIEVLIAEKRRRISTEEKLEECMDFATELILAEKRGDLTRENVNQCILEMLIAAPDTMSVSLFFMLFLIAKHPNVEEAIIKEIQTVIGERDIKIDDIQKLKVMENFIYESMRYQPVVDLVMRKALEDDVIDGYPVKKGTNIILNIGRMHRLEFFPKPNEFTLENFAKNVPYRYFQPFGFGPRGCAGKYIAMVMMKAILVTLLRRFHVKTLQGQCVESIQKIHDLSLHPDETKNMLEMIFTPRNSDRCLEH
The assay is described as follows: biochemical.

The next assay concerns the target T2, CYP19A1 (aromatase) (Homo sapiens, UniProt P11511).
T2 sequence (P11511 1-503): T1 sequence (P11511 1-503)
The assay is described as follows: cell-based.

The IC50 is the concentration needed to halve the response being measured.

For `CC(C)(C#N)c1cc(Cn2cncn2)cc(C(C)(C)C#N)c1` [Anastrozole, anastrozole], the concentration for half-maximal inhibition (IC50) was 0.8 to 600 nM at aromatase, 3.3 nM in assay [1] and 9.6 nM against CYP19A1 (aromatase).
